Data reported in paper doi:10.1101/2025.03.24.644918.
These are yes or no findings as the source states them, for the method shown. Binding seen in cells or lysates may run through a third protein. Some entries that bind do so weakly or less than the wild type. Where a sequence is shown, tags or fusion partners need not be part of it.

Amino acid sequences for entries named in this document (tags omitted).
UniProt Q8TDY2: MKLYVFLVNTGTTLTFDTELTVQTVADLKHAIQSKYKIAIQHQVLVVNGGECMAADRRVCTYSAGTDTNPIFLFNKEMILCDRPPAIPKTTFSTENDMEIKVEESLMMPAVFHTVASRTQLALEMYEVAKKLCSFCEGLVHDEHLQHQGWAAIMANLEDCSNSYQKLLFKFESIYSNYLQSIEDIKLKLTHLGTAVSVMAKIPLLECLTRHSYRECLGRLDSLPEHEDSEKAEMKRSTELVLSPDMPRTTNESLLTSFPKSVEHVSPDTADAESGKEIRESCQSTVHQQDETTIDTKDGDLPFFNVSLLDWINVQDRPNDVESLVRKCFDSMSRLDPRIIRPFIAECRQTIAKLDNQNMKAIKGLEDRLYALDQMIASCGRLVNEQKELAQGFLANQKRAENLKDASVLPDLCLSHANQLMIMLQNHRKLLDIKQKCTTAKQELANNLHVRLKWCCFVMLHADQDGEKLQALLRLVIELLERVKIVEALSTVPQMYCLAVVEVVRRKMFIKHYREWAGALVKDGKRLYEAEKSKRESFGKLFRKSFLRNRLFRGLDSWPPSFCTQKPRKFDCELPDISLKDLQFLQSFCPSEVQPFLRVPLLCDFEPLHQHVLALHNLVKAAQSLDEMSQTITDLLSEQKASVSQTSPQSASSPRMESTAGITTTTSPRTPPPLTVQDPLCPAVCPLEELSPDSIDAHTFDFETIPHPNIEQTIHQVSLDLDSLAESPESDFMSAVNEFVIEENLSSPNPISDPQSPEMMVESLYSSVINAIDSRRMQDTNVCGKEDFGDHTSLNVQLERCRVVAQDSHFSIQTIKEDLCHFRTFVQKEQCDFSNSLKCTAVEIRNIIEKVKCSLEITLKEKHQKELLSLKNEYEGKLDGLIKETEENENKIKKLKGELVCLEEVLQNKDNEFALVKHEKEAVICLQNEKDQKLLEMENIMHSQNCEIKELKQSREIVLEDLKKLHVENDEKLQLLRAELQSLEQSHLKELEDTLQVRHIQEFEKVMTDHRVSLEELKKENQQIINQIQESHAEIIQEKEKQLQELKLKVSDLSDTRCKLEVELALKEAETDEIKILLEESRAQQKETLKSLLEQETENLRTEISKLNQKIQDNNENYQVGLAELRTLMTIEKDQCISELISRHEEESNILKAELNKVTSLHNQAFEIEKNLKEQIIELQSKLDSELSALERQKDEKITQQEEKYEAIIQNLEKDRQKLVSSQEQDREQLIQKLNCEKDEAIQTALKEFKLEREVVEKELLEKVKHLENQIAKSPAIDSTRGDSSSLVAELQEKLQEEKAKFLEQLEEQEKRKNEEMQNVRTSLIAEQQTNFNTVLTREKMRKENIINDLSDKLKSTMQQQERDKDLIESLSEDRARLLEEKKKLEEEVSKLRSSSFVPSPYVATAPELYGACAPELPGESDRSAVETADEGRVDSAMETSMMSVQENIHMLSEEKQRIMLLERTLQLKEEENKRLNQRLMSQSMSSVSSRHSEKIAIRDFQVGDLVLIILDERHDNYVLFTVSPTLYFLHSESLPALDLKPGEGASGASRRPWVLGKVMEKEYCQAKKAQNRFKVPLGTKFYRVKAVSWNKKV

Target: T1, N-terminally myc-tagged full-length murine CCPG1 (mouse) (UniProt Q640L3)
T1 sequence: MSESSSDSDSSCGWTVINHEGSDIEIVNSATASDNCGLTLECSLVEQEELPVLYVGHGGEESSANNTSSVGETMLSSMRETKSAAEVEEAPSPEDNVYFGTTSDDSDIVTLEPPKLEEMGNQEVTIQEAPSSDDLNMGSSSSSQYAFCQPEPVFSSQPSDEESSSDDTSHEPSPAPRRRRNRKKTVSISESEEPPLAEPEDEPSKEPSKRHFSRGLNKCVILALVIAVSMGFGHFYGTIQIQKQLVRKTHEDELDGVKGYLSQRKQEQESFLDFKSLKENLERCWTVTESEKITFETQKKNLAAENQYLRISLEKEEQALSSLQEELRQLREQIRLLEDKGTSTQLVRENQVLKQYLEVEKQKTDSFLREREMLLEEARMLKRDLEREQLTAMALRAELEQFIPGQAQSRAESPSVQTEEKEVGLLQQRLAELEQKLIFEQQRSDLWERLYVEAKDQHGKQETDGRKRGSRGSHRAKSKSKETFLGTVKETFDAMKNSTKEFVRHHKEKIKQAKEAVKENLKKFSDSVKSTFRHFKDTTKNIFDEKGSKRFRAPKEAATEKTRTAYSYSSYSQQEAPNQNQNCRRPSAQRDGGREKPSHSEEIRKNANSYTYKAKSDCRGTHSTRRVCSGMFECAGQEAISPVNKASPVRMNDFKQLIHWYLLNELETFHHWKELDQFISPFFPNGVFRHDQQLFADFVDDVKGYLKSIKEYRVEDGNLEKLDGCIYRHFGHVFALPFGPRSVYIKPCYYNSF
Assay: co-IP

binding: binds
Substance: FIP200 (endogenous) (from UniProt Q8TDY2 1-1594)
